Test results reported in the supplement of paper PMC4635364.
Structures can show the parent of a compound that is named as a salt. This is one part of the list. This data set is noisy: repeats of one test often differ as much as different tests do.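 Human fetal ventral-midbrain neural progenitor line ReNCell VM, differentiated without mitogens. Images stained for doublecortin (early neurons) or tyrosine hydroxylase (dopaminergic neurons) were scored by blinded raters against untreated wells (0 = no change). Repeats and both raters were averaged, and compounds averaging 2 or higher were picked as hits for retesting.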

These compounds were tested on ReNCell VM (assay: neuronal differentiation score (DCX+ cell fraction vs untreated, manual image score) (score (-3 to 3)); higher = more neuronal differentiation). Settings: library: LOPAC; 2 uM; 2 weeks.

Neuronal differentiation score, inactive:
O=C(O)Cc1c[nH]c2ccc(O)cc12 [5-Hydroxyindolacetic acid] 0
Brc1ccc([C@H]2CN3CCSC3=N2)cc1 [S(-)-p-Bromotetramisole oxalate] 0
Cn1c(=O)c2[nH]cnc2n(C)c1=O [Aminophylline ethylenediamine] 0
N=C(N)SCCc1cccc(CCSC(=N)N)c1 [1,3-PBIT dihydrobromide] -1
Nc1nccc2c1ncn2[C@@H]1O[C@H](CO)[C@@H](O)[C@H]1O [3-deazaadenosine] -1
c1ccc(C2CN3CCSC3=N2)cc1 (single isomer, unassigned; (-)) [(-)-Tetramisole hydrochloride] 0
COc1cccc(OC)c1OCCNCC1CSc2ccccc2O1 (centres undefined) [Benoxathian hydrochloride] 0
NCCCS(=O)(=O)O [3-Amino-1-propanesulfonic acid sodium] 0

Same assay, conditions: library: Prestwick; 2 uM; 2 weeks

Neuronal differentiation score, inactive:
Cc1cc(/C=C/c2ccc3cc(N(C)C)ccc3[n+]2C)c(C)n1-c1ccccc1 [Pyrvinium pamoate] 0
COc1ccc(CC(C)NCC(O)c2ccc(O)c(NC=O)c2)cc1 (centres undefined) [Formoterol fumarate] 0
COc1ccc2cc([C@H](C)C(=O)O)ccc2c1 [Naproxen] 0
CNCC(O)c1ccc(O)c(O)c1 (centres undefined) [Racepinephrine HCl] 0
CCOc1ccc2ccccc2c1C(=O)N[C@@H]1C(=O)N2[C@@H]1SC(C)(C)[C@@H]2C(=O)O [Nafcillin sodium salt monohydrate] 0
CC1CS(=O)(=O)CCN1/N=C/c1ccc([N+](=O)[O-])o1 (centres undefined) [Nifurtimox] 0
O=P(O)(O)C(Cl)(Cl)P(=O)(O)O [Clodronate] 0
CCCCc1cc2ccccc2c(OCCN(C)C)n1 [Dimethisoquin hydrochloride] 0

Same assay, conditions: library: Spectrum; 2 uM; 2 weeks

Neuronal differentiation score, inactive:
CC(=O)OCC(=O)[C@@]1(O)CC[C@H]2[C@@H]3CCC4=CC(=O)CC[C@]4(C)[C@@]3(F)[C@@H](O)C[C@@]21C 0
O=C(O)[C@H](O)[C@@](O)(Cc1ccc(O)cc1)C(=O)O 0
Cc1c(N)c(=O)n(-c2ccccc2)n1C 0
COc1cc(NS(C)(=O)=O)ccc1Nc1c2ccccc2nc2ccccc12 0
N=C(N)NC(=O)c1nc(Cl)c(N2CCCCCC2)nc1N 0
c1ccc2[nH]c(-c3cscn3)nc2c1 0
O=c1c2ccccc2oc2ccccc12 0
CC(=O)Oc1ccc2c(c1C(C)C)CCC1C(C)(C)CCC[C@]21C (some centres undefined) 0
O=C(CCCN1CC=C(n2c(=O)[nH]c3ccccc32)CC1)c1ccc(F)cc1 0
O=S(=O)(O)c1cc(I)c(O)c2ncccc12 0
COc1cc(CNC(=O)CCCC/C=C/C(C)C)ccc1O 0
CCCCOCCOCCOCc1cc2c(cc1CCC)OCO2 0
O=C(O)CN(CCN(CC(=O)O)CC(=O)O)CCN(CC(=O)O)CC(=O)O 1
O=C(O)CCNC(=O)c1ccc(/N=N/c2ccc(O)c(C(=O)O)c2)cc1 0
O=C(O)c1cc(O)c(O)c(O)c1 0
CC1(C)S[C@@H]2[C@H](NC(=O)[C@H](C(=O)O)c3ccsc3)C(=O)N2[C@H]1C(=O)O 0
CN1CCN(CCCN2c3ccccc3Sc3ccc(C(F)(F)F)cc32)CC1 0
O=C(O[C@@H]1Cc2c(O)cc(O)cc2O[C@@H]1c1cc(O)c(=O)c2c(O)c(O)cc([C@H]3Oc4cc(O)cc(O)c4C[C@H]3O)c2c1)c1cc(O)c(O)c(O)c1 0
CC(=O)OCC(=O)[C@H]1CC[C@H]2[C@@H]3CC=C4C[C@@H](O)CC[C@]4(C)[C@H]3CC[C@]12C 0
CO[C@H]1C[C@H](O[C@@H]2/C(C)=C/C[C@@H]3C[C@@H](C[C@]4(CC[C@H](C)[C@@H](C5CCCCC5)O4)O3)OC(=O)[C@@H]3C=C(C)/C(=N/O)[C@H]4OC/C(=C\C=C\[C@@H]2C)[C@]43O)O[C@@H](C)[C@@H]1O 0

Looked up one by one from the list above (three):
Neuronal differentiation score, inactive:
O=C(O)[C@H](O)[C@@](O)(Cc1ccc(O)cc1)C(=O)O 0
CC(=O)Oc1ccc2c(c1C(C)C)CCC1C(C)(C)CCC[C@]21C (some centres undefined) 0
O=c1c2ccccc2oc2ccccc12 0

These compounds were tested on ReNCell VM (assay: dopaminergic neuron differentiation score (TH+ cell fraction vs untreated, manual image score) (score (0 to 3)); higher = more TH+ dopaminergic neuron differentiation). Settings: library: LOPAC; 2 uM; 4 weeks; BDNF 10 ng/ml + GDNF 10 ng/ml.

Dopaminergic neuron differentiation score, inactive:
O=C(O)Cc1c[nH]c2ccc(O)cc12 [5-Hydroxyindolacetic acid] 0
Brc1ccc([C@H]2CN3CCSC3=N2)cc1 [S(-)-p-Bromotetramisole oxalate] 0
Cn1c(=O)c2[nH]cnc2n(C)c1=O [Aminophylline ethylenediamine] 0
N=C(N)SCCc1cccc(CCSC(=N)N)c1 [1,3-PBIT dihydrobromide] 0
Nc1nccc2c1ncn2[C@@H]1O[C@H](CO)[C@@H](O)[C@H]1O [3-deazaadenosine] 0
c1ccc(C2CN3CCSC3=N2)cc1 (single isomer, unassigned; (-)) [(-)-Tetramisole hydrochloride] 0
COc1cccc(OC)c1OCCNCC1CSc2ccccc2O1 (centres undefined) [Benoxathian hydrochloride] 0
NCCCS(=O)(=O)O [3-Amino-1-propanesulfonic acid sodium] 0
